{
  "source": "patent US20240225971A1",
  "about": "(Genomatica, Inc., priority 2021, published 2024)",
  "key": {"[1]": {"assay": "Flash point of fragrance ingredients", "type": "physicochemical", "description": "Also included is the molecular weight of each of the fragrance ingredients. Not determinable (ND)."}, "[2]": {"assay": "Clarity of fragrance ingredient in bioderived 1,3-BG by visual observation"}},
  "data": [
    {"smiles": "CCCCCCCC1CCC(=O)O1", "note": "(stereo not drawn) [Aldehyde C14 (Undecalactone γ), Undecalactone γ]", "values": [
      {"measurement": "Flash Point", "setting": "[1]", "result": 160, "unit": "°C"},
      {"measurement": "Clarity 1%", "setting": "[2]", "result": "Clear"},
      {"measurement": "Clarity 10%", "setting": "[2]", "result": "Clear"}
    ]}
  ]
}
